Measured values published in US10364249B2, “Azatriangulenium salts as PET-quenched fluorescent probes” (KØBENHAVNS UNIVERSITET, priority 2013, dated 2019).

Experiment: Absorption and emission spectra, photophysical properties of pH-responsive triangulenium dyes in solution
Format: physicochemical
Conditions: PBS solution, emission spectra at various pH
Experimental: Absorption and emission spectrum of the prepared triangulenium compounds of Formula (I) were measured and their photophysical properties are compiled in table 2.
pKa is −log10 of the acid dissociation constant, Ka, and is a quantitative measure of the strength of an acid in solution. λmax denotes the wavelength wherein maximum absorption is obtained. λem denotes the wavelength wherein maximum emission is obtained. φfl-on and φfl-off are the fluorescence quantum yields, wherein the responsive fluorescent compounds are in their on-state (not quenched) and off-state (quenched), respectively. Ion/Ioff is the ratio between φfl-on and φfl-off.
All disclosed absorption and emission spectrum measurement shown herein are measured as follows:
Emission spectroscopy was performed in front-face set-up for sensor spot samples and in a conventional L-shape set-up for measuremetns in solution. A Perkin-Elmer LS50B and a Horiba Fluorolog 3 were used interchangeably. Intensity based sensor measurements were only performed on the LS50B platform. Fluorescence lifetime based sensor measurements were only performed on the Fluorolog 3. Absorption spectroscopy was performed on a Perkin Elmer Lambda1050, with integrating sphere (for sensor spots) and with a 3-detector module for solution samples.

c1cc2oc3cccc4c3[c+]3c2c(c1)oc1cccc(c13)n4CCCN1CCOCC1 [Compound 3a, 4-(3-morpholinopropyl)-4-aza-8,12-dioxa-4,8,12,12c-tetrahydro-dibenzo[cd,mn]-pyrenylium]
pH range that can be determined reliably (ratiometric principle): 3 to 10
